# Data: PubChem BioAssay AID720541 (National Center for Advancing Translational Sciences (NCATS), 2013)
# About 420 (32%) of roughly 1,300 compounds were called active. This list was built around the results that the source calls inconclusive (neither active nor inactive); the mix of calls is not that of the screen. The call rests on the fitted dose curve; in most records, active means well fitted inhibition curve with a large enough effect; inconclusive means small, poorly fitted or top-dose-only effect; inactive means no such curve, though single readings can be large or run the other way. Where the call is inconclusive, the potency comes from a doubtful curve fit.
# Target: C-terminal-binding protein 1 (Homo sapiens) (UniProt Q13363)
# Test: qHTS for Inhibitors of the Phosphatase Activity of Eya2: Carboxyl-terminal binding protein (CtBP) Counterscreen for Cherry-picked Compounds; further: nearly all actives have a fitted effect of over 65% in size
# Settings: purified protein-protein binding, AlphaScreen, 3 h; series mostly up to 46.1 µM
# Outline: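 AlphaScreen using 25 nM GST-E1A with 25 nM CtBP-6xHIS; compounds at 2.5 nM–46 uM final, 2 h at room temperature, then donor/acceptor beads (20 ug/mL) for 1 h in the dark. Signal normalized to E1A peptide inhibitor (maximum inhibition) and DMSO.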
# Potency means the concentration at half of the fitted maximal effect.
row,SMILES,Potency
1,O=C(C[N+]12CN3CN(CN(C3)C1)C2)c1ccc(O)c(O)c1,"inconclusive: 16.9 µM [inhibitor, single point]"
2,Cc1cccc(NC2=C(NCCO)C(=O)c3ccccc3C2=O)c1,active: 12 µM
3,CCOc1ccc2[nH]cc(-c3csc(N)n3)c2c1,active: 12 µM
4,Cc1ccc(-c2nn3c(C)nnc3c3ccccc23)cc1S(=O)(=O)NC(C)c1ccccc1 (stereo unspecified),"inconclusive: 16.9 µM [inhibitor, single point]"
5,COc1ccc(C(=O)Nc2ccc3c(c2)OCO3)cc1S(=O)(=O)N1CCOCC1,"inconclusive: 15.1 µM [inhibitor, partial curve]"
6,CC1CCN(CC2C(=O)O[C@@H]3C[C@@]4(C)CCC[C@H](C)C4=C[C@H]23)CC(C)(C)C1 (stereo partly specified),inactive
7,COc1cccc(/C=N/N2C(=O)CSC2=S)c1O,active: 1.2 µM
8,COc1ccc(NC(=O)c2ccc(COc3ccccc3)o2)c(OC)c1,inactive
9,CCOC(=O)c1cnc(-n2nc(C)cc2C)nc1N(CC)CC,"inconclusive: 16.9 µM [inhibitor, partial curve]"
10,COc1ccc(C)cc1NC(=O)/C=C/c1ccc(OC)c(S(=O)(=O)N2CCOCC2)c1,"inconclusive: 15.1 µM [inhibitor, partial curve]"
11,Cn1cc(C(c2ccccn2)c2cn(C)c3ccccc23)c2ccccc21,"inconclusive: 15.1 µM [inhibitor, partial curve]"
12,CN(C)c1ccc(-c2ccnc3c2CC(C)(C(=O)Nc2ccc(Cl)c(C(F)(F)F)c2)O3)cc1 (stereo unspecified),inactive
13,Cc1nc(NC(=O)CSc2nnc(-c3ccccc3)c(-c3ccccc3)n2)c(Cl)cc1Cl,inactive
14,CCCCOC(=O)CCCc1ccc([N+](=O)[O-])cc1[N+](=O)[O-],inactive
15,NC(=O)c1c(NC(=O)c2cnccn2)sc2c1CCCC2,active: 0.301 µM
16,CCOC(=O)c1ccc(Nc2c(OCC)c(=O)c2=O)cc1,"inconclusive: 15.1 µM [inhibitor, single point]"
17,O=c1[nH]c(=O)n(C2C[C@H](O)[C@@H](CO)O2)cc1C(F)(F)F (stereo partly specified),inactive
18,COc1cc2ncnc(Nc3ccc4c(c3)OCO4)c2cc1OC,"inconclusive: 13.5 µM [inhibitor, partial curve]"
19,CSCCC(=O)Nc1nc(-c2ccccn2)cs1,active: 12 µM
20,COc1ccc(N(CC(=O)Nc2cccc(C(C)=O)c2)S(=O)(=O)c2ccc(NC(C)=O)cc2)cc1,inactive
21,Cc1ccc2[nH]c(=O)c3cc(C(=O)N(CCCOC(C)C)Cc4ccco4)sc3c2c1,"inconclusive: 15.1 µM [inhibitor, single point]"

# A few values from the list.
# Entry of CC1CCN(CC2C(=O)O[C@@H]3C[C@@]4(C)CCC[C@H](C)C4=C[C@H]23)CC(C)(C)C1 (stereo partly specified) under Potency: inactive
# Entry of COc1ccc(N(CC(=O)Nc2cccc(C(C)=O)c2)S(=O)(=O)c2ccc(NC(C)=O)cc2)cc1 under Potency: inactive
